Measured values as given in patent US4892871A, “Azido-substituted octopamine agonists and the use thereof to control invertebrate pests” (The General Hospital Corporation, priority 1988, dated 1990).
For some of these results: The name of at least one read-out is uncertain. At least one compound was matched to its structure with a doubt left.

Tests used:
[1] = test system: octopamine-sensitive adenylate cyclase; experiment: Activation of adenylate cyclase in firefly light organ membrane (broken cell) preparations; type: biochemical, Photinus pyralis; details: for adenylate cyclase activity profile compared with unlabeled IV: light organ membranes
Experimental: The question of whether a given azido-substituted compound within the scope of the invention is an octopamine agonist can be readily answered by measuring adenylate cyclase activity of the octopamine-sensitive adenylate cyclase present in broken cell preparations of the firefly light organ. […] Specimens of Photinus pyralis are prepared by opening their tail sections, cleaning them, removing the light organs, and homogenizing the cyclase-containing fraction. Adenylate cyclase activity is measured in appropriate buffer-containing ATP, cofactors, and the compound to be tested. Normally, the solution mixture contains a phosphodiesterase inhibitor such as theophylline, and the assay is designed to provide linear measurements with respect to time and enzyme concentration. If necessary, the compounds to be tested are initially solubilized and appropriate solvent controls are run in parallel. The enzyme reaction is initiated by addition of ATP, stopped by heating, and centrifuged. Cyclic AMP can be measured by any test which indicates the presence thereof, preferably by the protein binding assay of Brown et al. (Advances in Cyclic Nucleotide Research 2:25-40 (1972)). The determination of the constant Ka, which is the concentration of the azido-substituted agonist necessary for half-maximal activation of cyclase activity, is carried out by measuring cyclase activity in the preparation, and plotting the activity (above control activity) versus the semilogarithm of the particular agonist concentration. This is done for a series of increasing concentrations until maximal activity (Vmax) is reached. Ka^(Azido) is then calculated from the graph as the agonist concentration required for one-half of Vmax. Ka^(Azido) is compared with the constant (Ka^oct) determined in an analogous way using ±p-octopamine as the agonist. The ratio Ka^oct /ka^(Azido) is then an indication of whether a particular azido-substituted agonist (Azido) is more (ratio greater than 1) or less (ratio smaller than 1) active than (±)-p-octopamine (oct). Maximal activation of enzyme activity as a percentage of maximal activation seen in the presence of (±) p-octopamine can be denoted as % Vmax. (Although the naturally occurring insect neurotransmitter is (-)-p-octopamine, the definition of an "agonist" in the present application is based on (±)-p-octopamine as the standard. Since an "agonist" is a compound that mimics the effect of (-)-p-octopamine, (-)-p-octopamine itself, free of substantial amounts of the (+) enantioner is not included in the definition).

[2] = test system: intact firefly light organ; experiment: Light emission after injection into isolated firefly tails; type: in vivo; details: injected into isolated firefly tails
Experimental: In the second verification procedure, a bioassay was conducted which measured the effect of tritiated VIII on eliciting light emission when injected into isolated firefly tails.

[3] = test system: octopamine-sensitive adenylate cyclase; experiment: Adenylate cyclase activity in cockroach nerve cord; type: biochemical
octopamine receptors [4] = experiment: Adenylate cyclase activity in cockroach leg muscle; type: biochemical
[5] = test system: octopamine-sensitive adenylate cyclase; experiment: Adenylate cyclase activity in Manduca sexta nerve cord; type: biochemical
Manduca larvae = experiment: Antifeeding activity, Manduca larvae on sprayed tomato leaves; type: in vivo
octopamine receptors [6] = experiment: Irreversible activation of adenylate cyclase after photolysis of firefly light organ membranes; type: biochemical; details: photolyzed with excess octopamine, washed
Description: When exposed to ultraviolet light in these wavelengths, the N3 azido group on the para-position is photolyzed to yield free N2 and a […] covalently with a number of protein sites, including areas with double bonds, amino groups and carboxylic acids. If compound IV is occupying an octopamine receptor at the time of photolysis, then the ligand will bind to a site on or near the receptor protein. […] To determine this, a series of photolysis experiments were performed in which firefly light organ membranes were preincubated with or without compound IV and then photolyzed. Next, the membranes were extensively washed to remove all free ligand and any ligand that was not covalently bound. Following this, adenylate cyclase activity was assayed. […] Presumably, the excess octopamine displaced compound IV so that, when the membranes were later photolyzed, octopamine (and not compound IV) was occupying the receptor. Subsequently, during washing, the octopamine was removed so that the receptor returned to its unstimulated state.

octopamine receptor = experiment: Reversible binding of compound VIII to light organ membranes (filtration); set-up: species or system firefly; details: results from the Ka
Description: The low affinity of octopamine for its receptor (Ka =30 micromolar) results in a half-time of dissociation of considerably less than 0.1 second. This precludes the use of labeled octopamine as a receptor ligand since the time required for the separation of free from bound ligand during a filtration assay is several seconds. […] In other words, following washing, enough ligand will still be on the receptor to allow estimation of the receptor's binding constant for compound IV. (Because there will still be significant loss of label during filtration, one cannot use this type of assay to estimate total receptor number).

[7] = firefly light organ adenylate cyclase
[8] = firefly light organ membranes, dim light

CCc1c(Br)c(N)c(Br)c(CC)c1N=C1NCCN1 [PA-DB-NC-5, (p-amino-3,5-dibromo-2,6-diethylphenyl)imino-2-imidazoline]
adenylate cyclase activity profile compared with unlabeled IV [1]: markedly different
activity in eliciting light emission compared with IV/VIII [2]: much less active

CCc1cc(N)cc(CC)c1N=C1NCCN1 [PA-NC-5, (p-amino-2,6-diethylphenyl)imino-2-imidazoline]
adenylate cyclase activity profile compared with unlabeled IV [1]: markedly different
activity in eliciting light emission compared with IV/VIII [2]: much less active

CCc1cc(N=[N+]=[N-])cc(CC)c1N=C1NCCN1 [compound IV, (4-azido-2,6-diethylphenyl)imino-2-imidazoline]
potency relative to PAC [1, 7]: ~1000 fold
potency relative to octopamine [1, 7]: about 100 fold
agonist character in adenylate cyclase activation [1, 8]: full agonist
concentration at which significant stimulation of enzyme activity was detectable [1, 8]: ≤ 20 nM
potency relative to octopamine [3]: more than 60 fold
potency relative to octopamine (octopamine receptors [4]): 100 fold
shape of adenylate cyclase response [5]: diphasic response
agonist character in light emission ([2]; presynaptic release blocked): full agonist
behavioral changes elicited (Manduca larvae): hyperactivity, tremor, rearing, walk-off
irreversible stimulation when preincubated together with an excess of octopamine (octopamine receptors [6]): could be blocked
off-time from receptor (octopamine receptor): a few seconds

NCC(O)c1ccc(O)cc1 (stereo not shown) [octopamine]
half-time of dissociation from receptor (octopamine receptor): less than 0.1 second
